No constants are given. Whether binding was seen depends on the method and setting. In cells and extracts the contact can be indirect. Some entries that bind do so weakly or less than the wild type. For part of these data: Sequences can lack the tags named with a protein.

Assay [1] addresses T1, NRF2 (endogenous, HER2-amplified breast cancer cells) (human (endogenous in AU-565 and SK-BR-3)) (UniProt Q16236).
T1 sequence: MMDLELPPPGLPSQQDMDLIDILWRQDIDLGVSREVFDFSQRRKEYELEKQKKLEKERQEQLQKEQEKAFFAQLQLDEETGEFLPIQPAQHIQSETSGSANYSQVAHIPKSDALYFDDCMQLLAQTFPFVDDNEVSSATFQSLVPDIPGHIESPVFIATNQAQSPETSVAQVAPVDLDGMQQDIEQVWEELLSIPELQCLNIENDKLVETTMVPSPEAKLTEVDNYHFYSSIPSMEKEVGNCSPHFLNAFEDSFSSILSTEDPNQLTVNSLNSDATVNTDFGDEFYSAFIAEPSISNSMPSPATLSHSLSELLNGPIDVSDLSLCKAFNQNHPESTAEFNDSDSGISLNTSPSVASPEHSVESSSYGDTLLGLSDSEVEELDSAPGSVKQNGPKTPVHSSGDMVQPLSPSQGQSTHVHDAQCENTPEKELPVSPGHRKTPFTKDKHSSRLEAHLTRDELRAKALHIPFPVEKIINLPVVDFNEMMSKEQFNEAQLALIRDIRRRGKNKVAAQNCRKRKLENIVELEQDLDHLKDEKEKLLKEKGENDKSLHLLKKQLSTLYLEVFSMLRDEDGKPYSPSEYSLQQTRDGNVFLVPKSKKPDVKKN
As to the kind of experiment: co-IP; endogenous proteins in AU-565 and SK-BR-3 cells, serum-starved 24 hr, with or without 100 ng/ml heregulin (HRG) for 4 hr; immunoprecipitation of HER2 and NRF2, respectively, western blot.

The target in assay [2] is constitutively active HER2 (HER2CA, V659E) (human) (UniProt P04626). Nature of the assay: co-IP; HEK293T cells transiently transfected with HER2CA and FLAG-NRF2 or GFP-NRF2; immunoprecipitation of HER2CA (FLAG-NRF2) or of GFP (GFP-NRF2), western blot. On the technique in general: Immunoblotting shows a protein as a band on a membrane.
The target is the same in assay [3]. Nature of the assay: co-IP; data not shown: reciprocal immunoprecipitation of HER2CA from HEK293T cells transfected with HER2CA and GFP-NRF2.

Take “HER2 (endogenous, HER2-amplified breast cancer cells) (from UniProt P04626 23-1255) (receptor)”: the binding entry in assay [1] is on record as “binds”.

B1: FLAG-NRF2 (protein, UniProt Q16236 1-605)
chain: T1 sequence
For B1, the binding entry in assay [2] is reported as “binds”.

B2: GFP-NRF2 (protein, UniProt Q16236 1-605)
chain: T1 sequence
For the molecule B2, the binding entry in assay [3] is on record as “binds”.

Source of the values: paper PMC4252900.
